Patent US8957228B2, “Macrolide compound having anticancer effect” (Tohoku University, priority 2010, dated 2015)

Each compound was assayed on panel of 39 human cultured cancer cell lines (assay: Drug sensitivity test, whole panel: comparison with known compounds (finger print correlation)). Conditions: correlation with exiguolide finger print over the panel.
Format: cell-based

With `CO[C@@]12[C@H](COC(N)=O)C3=C(C(=O)C(C)=C(N)C3=O)N1C[C@@H]1N[C@@H]12` [Mitomycin C] as the compound, how does the “r = Correlation coefficient (correlation of exiguolide sensitivity pattern with known drug)” value (shortened to “r = Correlation coefficient”) read?
Its value is 0.556.

With `COc1cccc2c1C(=O)c1c(O)c3c(c(O)c1C2=O)C[C@@](O)(C(=O)CO)C[C@@H]3O[C@H]1C[C@H](N)[C@H](O[C@@H]2CCCCO2)[C@H](C)O1` [Pirarubicin] as the compound, how does the “r = Correlation coefficient” value read?
The value was 0.561.

`CC(=O)[C@]1(N)Cc2c(O)c3c(c(O)c2[C@@H](O[C@H]2C[C@H](O)[C@H](O)CO2)C1)C(=O)c1ccccc1C3=O` [SM-5887] was tested. Which “r = Correlation coefficient” value did it give?
Its value is 0.537.

No dose or concentration is given here for some results.
